Laboratory results taken from US10556844B2, “Pyrazole compounds as nitrification inhibitors” (BASF SE, priority 2015, dated 2020).
Some entries share one result that the patent states for a list of compounds.

These molecules were tested on nitrification (assay: Inhibition of nitrification in field soil (48 well plate, ammonium sulfate, colour reaction read at 540 nm)). Settings: dose of 10 ppm, room temperature, up to 72 hrs.
Experimental: The compounds of the invention have been tested as follows in terms of the inhibition of nitrification:
Soil was sampled fresh from a field (e.g. Limburgerhof), dried and sieved through a 500 μm sieve. Approximately 200 mg of soil were placed into each well of a 48 well plate. Compounds, or DMSO alone, were added at a concentration of 10 ppm, dissolved in 1% DMSO. 6 μmol ammonium sulfate was added per well as well as 4.8 mg NaClO3.
Subsequently, the samples were incubated at room temperature for up to 72 hrs. After the incubation period 64 mg KCl were added and mixed. 25 μl of the supernatant were placed into a fresh plate and 260 μl of a color reaction solution (from Merck Nr 1.11799.0100) were added.
Measurements were taken with a Tecan plate Reader at 540 nm wavelength.
Inhibition is calculated as x=% activity compared to control, and converted to 100-x to give the value of inhibition, rather than activity.

Compound	inhibition compared to a control (DMSO only) [%]
C#CCn1ncc(C(=O)O)c1C [Compound A-42]	≥ 10
C#CCn1cccn1 [Compound A-19]	≥ 10
C=C=Cn1ccc(C)n1 [Compound B-5]	≥ 10
C#CCn1nc(C)c(OC(C)=O)c1C [Compound A-44]	≥ 10
C=C=Cn1nccc1C [Compound B-6]	≥ 10
C#CCn1nc(O)c2ccccc21 [Compound A-14]	≥ 10
C#CCn1ncc2c1C(=O)c1ccccc1C2=O [Compound A-33]	≥ 10
